# Over roughly 1,900 compounds, “excess over highest single agent (ExcessHSA) synergy score, 6x6 matrix” has its median near -83; the lowest 2% begin near -370. The list shows a part of the results.
# Tested on: NCI-H446
# Experiment: excess over highest single agent (ExcessHSA) synergy score, 6x6 matrix; higher = less synergy (more negative = stronger synergy)
# Settings: 72 h; CellTiter-Glo viability
row,SMILES,excess over highest single agent
1,Fc1ccc([C@@H]2CCNC[C@H]2COc2ccc3c(c2)OCO3)cc1 + Cc1sc2c(c1C)C(c1ccc(Cl)cc1)=N[C@@H](CC(=O)OC(C)(C)C)c1nnc(C)n1-2 [NCGC00250412-19],-55.7
2,O=c1[nH]cnc2c1ncn2[C@H]1CC[C@@H](CO)O1 + Cc1sc2c(c1C)C(c1ccc(Cl)cc1)=N[C@@H](CC(=O)OC(C)(C)C)c1nnc(C)n1-2 [NCGC00250412-19],0.095
3,CN(C/C=C/C#CC(C)(C)C)Cc1cccc2ccccc12 + Cc1sc2c(c1C)C(c1ccc(Cl)cc1)=N[C@@H](CC(=O)OC(C)(C)C)c1nnc(C)n1-2 [NCGC00250412-19],5.53
4,C[C@H]1COc2c(N3CCN(C)CC3)c(F)cc3c(=O)c(C(=O)O)cn1c23 + Cc1sc2c(c1C)C(c1ccc(Cl)cc1)=N[C@@H](CC(=O)OC(C)(C)C)c1nnc(C)n1-2 [NCGC00250412-19],-69.2
5,NC(CO)C(=O)NNCc1ccc(O)c(O)c1O (stereo not given) + Cc1sc2c(c1C)C(c1ccc(Cl)cc1)=N[C@@H](CC(=O)OC(C)(C)C)c1nnc(C)n1-2 [NCGC00250412-19],-50.6
6,O=C1c2c(O)cc(O)cc2O[C@H](c2cc(O)c(O)c(O)c2)[C@H]1O + Cc1sc2c(c1C)C(c1ccc(Cl)cc1)=N[C@@H](CC(=O)OC(C)(C)C)c1nnc(C)n1-2 [NCGC00250412-19],-87.9
7,CC(C)(C(=O)NCC(F)(F)C(F)(F)F)C(=O)N[C@@H]1C(=O)Nc2ccccc2-c2ccccc21 + Cc1sc2c(c1C)C(c1ccc(Cl)cc1)=N[C@@H](CC(=O)OC(C)(C)C)c1nnc(C)n1-2 [NCGC00250412-19],-193
8,CCC(C)n1ncn(-c2ccc(N3CCN(c4ccc(OCC5COC(Cn6cncn6)(c6ccc(Cl)cc6Cl)O5)cc4)CC3)cc2)c1=O (stereo not given) + Cc1sc2c(c1C)C(c1ccc(Cl)cc1)=N[C@@H](CC(=O)OC(C)(C)C)c1nnc(C)n1-2 [NCGC00250412-19],-210
9,CCOc1cc(N)c(Cl)cc1C(=O)NCC1CN(Cc2ccc(F)cc2)CCO1 (stereo not given) + Cc1sc2c(c1C)C(c1ccc(Cl)cc1)=N[C@@H](CC(=O)OC(C)(C)C)c1nnc(C)n1-2 [NCGC00250412-19],-9.59
10,C=CC(=O)Nc1cccc(Nc2nc(NC3CCC(N(C)C)CC3)nc3c2ncn3C(C)C)c1 (stereo not given) + Cc1sc2c(c1C)C(c1ccc(Cl)cc1)=N[C@@H](CC(=O)OC(C)(C)C)c1nnc(C)n1-2 [NCGC00250412-19],-137
11,O=C(O)CCNC(=O)c1ccc(/N=N/c2ccc(O)c(C(=O)O)c2)cc1 + Cc1sc2c(c1C)C(c1ccc(Cl)cc1)=N[C@@H](CC(=O)OC(C)(C)C)c1nnc(C)n1-2 [NCGC00250412-19],-42.5
12,C[C@H]1[C@H](OC(=O)CCC(=O)O)O[C@@H]2O[C@@]3(C)CC[C@H]4[C@H](C)CC[C@@H]1[C@@]24OO3 + Cc1sc2c(c1C)C(c1ccc(Cl)cc1)=N[C@@H](CC(=O)OC(C)(C)C)c1nnc(C)n1-2 [NCGC00250412-19],-116
13,C=CCn1c(=O)c2cnc(Nc3ccc(N4CCN(C)CC4)cc3)nc2n1-c1cccc(C(C)(C)O)n1 + Cc1sc2c(c1C)C(c1ccc(Cl)cc1)=N[C@@H](CC(=O)OC(C)(C)C)c1nnc(C)n1-2 [NCGC00250412-19],-269
14,CCCCCN(CCC12CC3CC(CC(C3)C1)C2)C(=O)NCCCc1ccncc1 + Cc1sc2c(c1C)C(c1ccc(Cl)cc1)=N[C@@H](CC(=O)OC(C)(C)C)c1nnc(C)n1-2 [NCGC00250412-19],-174
15,O=C1CCC(N2C(=O)c3ccccc3C2=O)C(=O)N1 (stereo not given) + Cc1sc2c(c1C)C(c1ccc(Cl)cc1)=N[C@@H](CC(=O)OC(C)(C)C)c1nnc(C)n1-2 [NCGC00250412-19],-255
16,COc1ccc(C(=O)c2c(C)n(CCN3CCOCC3)c3ccccc23)cc1 + Cc1sc2c(c1C)C(c1ccc(Cl)cc1)=N[C@@H](CC(=O)OC(C)(C)C)c1nnc(C)n1-2 [NCGC00250412-19],-118
17,C1Cc2[nH]nc(-c3nn[nH]n3)c2C1 + Cc1sc2c(c1C)C(c1ccc(Cl)cc1)=N[C@@H](CC(=O)OC(C)(C)C)c1nnc(C)n1-2 [NCGC00250412-19],-99.5
18,O=C(Nc1cccc(Nc2ncc(Br)c(NCCc3cnc[nH]3)n2)c1)N1CCCC1 + Cc1sc2c(c1C)C(c1ccc(Cl)cc1)=N[C@@H](CC(=O)OC(C)(C)C)c1nnc(C)n1-2 [NCGC00250412-19],-166
19,COc1nc(N)nc2c1ncn2[C@@H]1O[C@H](CO)[C@@H](O)[C@@H]1O + Cc1sc2c(c1C)C(c1ccc(Cl)cc1)=N[C@@H](CC(=O)OC(C)(C)C)c1nnc(C)n1-2 [NCGC00250412-19],-136
20,COc1ccc2c(Oc3ccc(NC(=O)c4c(C)n(CC(C)(C)O)n(-c5ccccc5)c4=O)cc3F)ccnc2c1 + Cc1sc2c(c1C)C(c1ccc(Cl)cc1)=N[C@@H](CC(=O)OC(C)(C)C)c1nnc(C)n1-2 [NCGC00250412-19],-71.1
21,OC[C@H]1O[C@@H](n2cnc3c2N=CNC[C@H]3O)C[C@@H]1O + Cc1sc2c(c1C)C(c1ccc(Cl)cc1)=N[C@@H](CC(=O)OC(C)(C)C)c1nnc(C)n1-2 [NCGC00250412-19],11
22,CN(C)c1ccccc1CN1CCCN(Cc2ccccc2N(C)C)C1c1ccncc1 + Cc1sc2c(c1C)C(c1ccc(Cl)cc1)=N[C@@H](CC(=O)OC(C)(C)C)c1nnc(C)n1-2 [NCGC00250412-19],-30.5
23,O=C(/C=C/C=C/c1ccc2c(c1)OCO2)N1CCCCC1 + Cc1sc2c(c1C)C(c1ccc(Cl)cc1)=N[C@@H](CC(=O)OC(C)(C)C)c1nnc(C)n1-2 [NCGC00250412-19],24.3
24,O=c1c2ccccc2nc2n1CCc1c-2[nH]c2ccccc12 + Cc1sc2c(c1C)C(c1ccc(Cl)cc1)=N[C@@H](CC(=O)OC(C)(C)C)c1nnc(C)n1-2 [NCGC00250412-19],-26.4
25,CN(C)c1ccc2cc(C(=O)N[C@@H](CCCN=C(N)CCl)C(=O)NCc3ccccc3)ccc2c1 + Cc1sc2c(c1C)C(c1ccc(Cl)cc1)=N[C@@H](CC(=O)OC(C)(C)C)c1nnc(C)n1-2 [NCGC00250412-19],-202

# Entries 24 through 25 from above:
row,SMILES,excess over highest single agent
24,O=c1c2ccccc2nc2n1CCc1c-2[nH]c2ccccc12 + Cc1sc2c(c1C)C(c1ccc(Cl)cc1)=N[C@@H](CC(=O)OC(C)(C)C)c1nnc(C)n1-2 [NCGC00250412-19],-26.4
25,CN(C)c1ccc2cc(C(=O)N[C@@H](CCCN=C(N)CCl)C(=O)NCc3ccccc3)ccc2c1 + Cc1sc2c(c1C)C(c1ccc(Cl)cc1)=N[C@@H](CC(=O)OC(C)(C)C)c1nnc(C)n1-2 [NCGC00250412-19],-202

# From the supplement of paper PMC10077471
